This experiment in a line: qHTS Assay for Modulators of Lamin A Splicing. As to conditions: HeLa LMNA splicing GFP/RFP minigene ratio, 48 h. An outline of the steps: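 Read-out is the ratio of GFP to DsRed2 object intensity, acquired by 488 nm laser-scanning cytometry on HeLa lamin A-EGFP minigene reporter cells. Compound incubation 48 hrs at 37 °C in Opti-MEM with 2% FBS; DMSO 0.5% final.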
(In general: qHTS replaces the single test concentration by a dilution series.)

Setting [1] is: measured here: GFP splicing reporter channel.
[2] abbreviates: measured here: RFP viability control channel.

“And” between values parts separate entries of the source, which are not always exact repeats. Identical values can stand only once. The list shows a part of the results. The main result of the screen is listed elsewhere. These columns were measured beside it and carry no call. Compounds called inactive in the main read-out are mostly missing here. Potencies come from curve fits of mixed quality, noted in brackets.

Usually AC50 stands for the midpoint of the concentration-response curve, whichever way the signal moves.

Take `C[C@]12CCC(=O)C=C1CC[C@@H]1[C@@H]2CC[C@@]2(C)[C@H]1CC[C@]2(O)C(=O)CO`: the AC50 is 0.00501 µM [falling, full curve, poor fit] under setting [1]; 5.01 nM [falling, full curve, poor fit] and 6.31 µM [falling, single point] under setting [2]. For the compound `Nc1c(C(=O)NCCc2ccc(Cl)cc2)sc2ccc(S(=O)(=O)N3CCCCC3)cc12`, the AC50 under setting [2] was 12.6 µM [rising, single point]. As for `COc1ccc(COc2ccc(C3C(S(=O)(=O)c4ccccc4)CON3C)cc2OC)cc1` (configuration not stated), the AC50 under setting [2] was 1.12 µM [falling, partial curve, poor fit]. As for `CCN(CC)S(=O)(=O)c1cccc(-c2nnc(SCC(=O)c3ccc(Cl)s3)n2C)c1`, the AC50 under setting [1] is 14.1 µM [rising, single point]. For the compound `Oc1ccccc1CNc1cnc2ccccc2c1`, the AC50 under setting [2] is 35.5 µM [rising, single point].

Consider `COC(=O)c1cccc(NC(=O)CN(c2ccc3c(c2)OCO3)S(C)(=O)=O)c1C`, for which the AC50 is 0.00501 µM [rising, full curve, poor fit] under setting [1] and 0.00447 µM [rising, full curve, poor fit] under setting [2]. For the compound `COC(=O)C(=C/C=C/c1cccnc1)C(=O)OC`, the AC50 under setting [1] is 6.31 µM [rising, partial curve] and the AC50 under setting [2] was 1.78 µM [rising, partial curve, poor fit].

For `O=C(c1cc(-c2cccs2)nc2ccccc12)N1CCN(c2ccccc2O)CC1`, the AC50 under setting [2] was 11.2 µM [rising, single point]. Consider `Cc1ccc(-c2nc3ccccc3s2)cc1NC(=S)NC(=O)/C=C/c1ccco1`, for which the AC50 runs as follows: under setting [1], 10 µM [falling, partial curve]; under setting [2], 11.2 µM [falling, partial curve].

In the case of `CCn1c(C(=O)N2CCC(C(=O)NCc3ccc4c(c3)OCO4)CC2)cc2sccc21`, under setting [2], the AC50 was 35.5 µM [rising, single point].

As to `Cc1cccn2c(=O)cc(COc3ccc(NC(=O)COc4ccc(F)cc4)cc3)nc12`, the AC50 runs as follows: under setting [1], 11.2 µM [falling, partial curve]; under setting [2], 35.5 µM [falling, single point]. With `CCOc1ccccc1NC(=O)N1CC(C)Oc2ccc(Cl)cc21` (configuration not stated), the AC50 under setting [1] was 1.12 µM [rising, partial curve]. Turning to `O=C(NC(=S)Nc1ccc(Cc2ccncc2)cc1)c1ccccc1`, under setting [2], the AC50 was 35.5 µM [rising, single point]. For `CCOC(=O)C1=C(CN(CC)Cc2ccccc2)NC(=O)NC1c1ccc(OC)cc1` (configuration not stated), the AC50 under setting [1] was 0.02 µM [falling, full curve, poor fit]. With `Nc1cc(N2CCOCC2)c(Cl)cc1[N+](=O)[O-]`, the AC50 under setting [1] was 35.5 µM [rising, single point]. In the case of `CCS(=O)(=O)c1ccc2oc(Nc3cc(C)cc(C)c3)nc2c1`, the AC50 under setting [1] is 12.6 µM [rising, single point]. In the case of `Cc1c(C(=O)N2CCC(C)CC2)oc2ccc(S(=O)(=O)N3CCC4(CC3)OCCO4)cc12`, under setting [2], the half-maximal activity concentration (AC50) is 22.4 µM [rising, single point]. As to `Nc1nc2c(ncn2C2OC(COC(=O)c3ccccc3)C(OC(=O)c3ccccc3)C2OC(=O)c2ccccc2)c(=O)[nH]1` (configuration not stated), the AC50 was 8.91 µM [falling, partial curve] under setting [1] and 3.55 µM [rising, partial curve] under setting [2].

For the compound `COC(=O)c1cccc(NC(=O)CSc2nnc(COc3ccc(C#N)cc3)n2-c2ccccc2)c1`, the AC50 under setting [2] is 28.2 µM [rising, partial curve]. As for `COc1ccc(C2NCCC3(O)CCCCC23)c(OC)c1OC` (configuration not stated), the AC50 is 0.282 µM [falling, full curve] under setting [1] and 0.447 µM [falling, full curve, poor fit] under setting [2]. In the case of `CCCCCCCC1=CC2=CC(=O)C(C)(OC(C)=O)C(=O)C2=CN1CCc1ccccc1` (configuration not stated), the AC50 was 35.5 µM [rising, single point] under setting [1] and 20 µM [rising, partial curve, poor fit] under setting [2]. Consider `Cc1ccc(S(=O)(=O)N2CCCCC2C(=O)N2CCN(c3ccccc3F)CC2)cc1` (configuration not stated), for which the AC50 under setting [2] is 15.8 µM [rising, single point]. Turning to `O=C(CSc1nnc(Cc2cccs2)n1Cc1ccco1)Nc1cc(Cl)cc(Cl)c1`, under setting [2], the AC50 is 11.2 µM [rising, partial curve].

Regarding `Cn1c(=O)c2ncn(CC(=O)O)c2n(C)c1=O`, under setting [2], the concentration at half-maximal activity (AC50) was 8.91 µM [falling, partial curve]. Same read-out and setting: the figure for `COc1ccc(CCn2ccc(O)c(Cc3ccc(Cl)cc3)c2=O)cc1OC` is 0.0224 µM [falling, full curve, poor fit]. `CC(NS(=O)(=O)c1ccccc1)C(c1cccs1)N1CCOCC1` (configuration not stated): the half-maximal activity concentration (AC50) under setting [2] was 3.16 µM [rising, single point]. Consider `NC(=O)C1CCN(c2ccc(S(=O)(=O)N3CCC(Cc4ccccc4)CC3)cn2)CC1`, for which the AC50 reads like this: under setting [1], 7.94 µM [falling, partial curve, poor fit]; under setting [2], 0.01 µM [falling, full curve, poor fit].

Take `O=C1c2ccccc2-c2onc3ccc(Oc4ccccc4)c1c23`: the AC50 is 35.5 µM [falling, single point] under setting [1] and 35.5 µM [falling, single point] under setting [2]. For `CN(C(=O)c1ccccc1)c1nc2ccccc2s1`, the AC50 is, setting by setting: under setting [1], 12.6 µM [rising, single point]; under setting [2], 25.1 µM [rising, single point]. On to `CC1(C)Cc2ccccc2-c2c1c(=O)n(Cc1ccccc1)c1nnnn21`, for which the AC50 under setting [1] is 35.5 µM [rising, single point] and the AC50 under setting [2] is 35.5 µM [rising, single point].

For `Fc1ccc(N2CCN(Cc3cnc(Oc4ccc(Br)cc4)s3)CC2)cc1`, the AC50 runs as follows: under setting [1], 5.01 µM [rising, partial curve]; under setting [2], 20 µM [rising, partial curve]. Turning to `COc1cc(NC(=O)COc2cccc(OC)c2)cc(OC)c1`, the AC50 under setting [1] was 8.91 µM [rising, partial curve]. Turning to `COc1nc(NCCC2=CCCCC2)nc(OC)n1`, under setting [1], the AC50 was 11.2 µM [rising, partial curve]. Turning to `O=C(c1ccc2c(c1)N(Cc1cccc(Cl)c1)C(=O)c1ccccc1S2(=O)=O)N1CCc2ccccc21`, the AC50 under setting [1] was 0.282 µM [rising, full curve, poor fit].

The values are drawn from PubChem BioAssay AID1487 (National Center for Advancing Translational Sciences (NCATS), 2009).
